Patent publication US20230102840A1, “COMPOSITIONS AND METHODS RELATING TO COMBINATORIAL HYALURONIC ACID CONJUGATES” (PRESIDENT AND FELLOWS OF HARVARD COLLEGE, priority 2020, published 2023)
At least one structure is not confirmed: it was looked up by name or label, or the drawing left a doubt.

What was measured:
[1] = tested on: B16F10-Luc melanoma cells cocultured with BMDM; experiment: Cytotoxicity study, B16F10-Luc cocultured with BMDM; assay type: cell-based; settings: coculture 1:10 with BMDM, 48 h
Description: 5×10^3 B16F10-Luc cells were seeded in 96 well plates and allowed to adhere overnight. For establishment for a coculture, B16F10 cells were cocultured with BMDM at a ratio of 1:10 (5×10^3 B16F10: 5×10^4 BMDM per well). The next day, the media was aspirated and replaced with increasing concentration of the free drugs, combination and the HA-conjugates with equivalent free drug concentrations and cells were incubated with the drug solutions for 48 h after which the treatment was aspirated and replaced with 0.5% Xenolight-D-luciferin potassium salt solution in complete DMEM. Finally, cellular viability was assessed by reading the luminescence of the solution from each well after 5 min using BioTek plate reader. Untreated cells were used as controls.

BMDM = BMDM polarization (M1/M2 marker expression); assay type: cell-based; settings: 48 hr, vs untreated cells
Description: To further elucidate the effect of HA-RES and HA-BEX and their combination on macrophage phenotyping the inventors studied their effect on macrophage polarization. BMDMs were treated with different concentrations of RES and HA-RES for 48 hr. (FIG. 6A)
The expression of several markers associated with M1 and M2 phenotypes was evaluated.

SMILES: CCOCc1nc2c(N)nc3ccccc3c2n1CC(C)(C)O [RES, Resiquimod]
- effect on B16F10-Luc cells in the presence of macrophages (MAC) [1]: significantly enhanced
- expression of CD206 (M2 marker) (BMDM): significant reduction
- expression of iNOS (M1 marker) (BMDM): high significant increase
- expression of CD80 (M1 marker) (BMDM; p<0.0001): high significant increase
